# Source: PubChem BioAssay AID2685 (National Center for Advancing Translational Sciences (NCATS), 2010)
# Screen size: about 320,000 compounds; about 2,100 (0.66%) were called active. Inconclusive means that the source gave no clear call. Such entries were picked first, then a sample of the others. Calls come from the whole dose curve; as a rule, active = well fitted inhibition curve with a large enough effect in the signal ratio, with a control signal flat (not every such curve was filed as active); inconclusive = small, poorly fitted or top-dose-only effect, or effect the other way, or a change in a side signal; inactive = flat fitted curve, though single readings scatter; the % refers to the signal ratio. Where the call is inconclusive, the potency comes from a doubtful curve fit.
# Assay: qHTS Assay for Lipid Storage Modulators in Drosophila S3 Cells
# Conditions: BODIPY lipid droplet fluorescence, 18-24 h, cells fed with added oleic acid; lipid storage change, negative = inhibition: at 46.1 µM (top of the series) unless noted
# How it was run: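 Drosophila S3 cells loaded with oleic acid (400 uM, as added) and compounds at several concentrations; lipid droplets imaged by 488-nm laser-scanning cytometry, 500–530 nm intensity and object ratio to cell channel. Percent activity normalized to 20 uM Triacsin C.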
# % is set by controls: 0 for no effect and ±100 for the full control effect; potency is the fitted concentration of half-maximal effect.
Compound,"lipid storage change, negative = inhibition",Potency
O=C(Nc1ccc2c(c1)OCO2)O[C@@H]1C[C@H]2CCCC(=O)N3CC[C@@H](C1)[C@@H]23,inconclusive: -32.3%,–
O=C(NCCC1=CCCCC1)C(=O)NCC1OCCCN1S(=O)(=O)c1ccc(F)cc1 (centres undefined),inconclusive: 10.5%,–
NC(=O)C1CCN(C(=O)c2ccc3c(=O)n(Cc4cccc(Br)c4)c(=S)[nH]c3c2)CC1,–,"inconclusive: 11.6 µM [falling, partial curve]"
CC[C@]1(c2ccccc2)C(=O)N(C(=O)OC)N1C(=O)OC,inconclusive: -32.2%,–
Cc1ccc(S(=O)(=O)N2CCC(C(=O)Nc3ccc(C(C)C)cc3)CC2)cc1,inconclusive: -14.6%,–
NC(=O)C1(C(N)=O)OC1c1ccc(Cl)c(Cl)c1 (centres undefined),–,"inconclusive: 0.651 µM [falling, full curve, poor fit]"
C1CC1Cc1noc(CN2CCN(CC3CC3)CC2)n1,inconclusive: -13.5%,–
Cc1ccc(/C=N/NC(=O)c2nnn(-c3nonc3N)c2C(C)C)s1,–,"inconclusive: 0.651 µM [activator, single point]"
CN(C)CCCN(C(=O)c1ccc([N+](=O)[O-])o1)c1nc2cc3c(cc2s1)OCO3,inconclusive: -12.6%,–
N#C/C(=C(/O)COc1ccccc1)c1nc2ccccc2s1,inconclusive: -1.98%,–
Cc1cc(C)c(S(=O)(=O)Nc2cccc(-n3cnnn3)c2)c(C)c1,–,"inconclusive: 6.51 µM [falling, single point]"
Cc1ccc(NC(=O)COC(=O)CNC(=O)c2ccc(Br)cc2)c(C)c1,–,"inconclusive: 0.092 µM [falling, full curve, poor fit]"
Cc1cc(S(=O)(=O)Nc2ccc(C(=O)NCCCN3CCCC3=O)cc2)ccc1F,inconclusive,–
O=C(Oc1ccccc1)c1cccc2cccnc12,inconclusive: -0.817%,–
CC(C)c1ccc(N(CC(=O)NCC2CCCO2)C(=O)CCC(=O)Nc2nccs2)cc1 (centres undefined),inconclusive: 40.9%,–
CC(=O)Oc1ccc(C(=O)Nc2nnc(C)s2)cc1,–,"inconclusive: 0.0052 µM [activator, full curve, poor fit]"
Cc1ccnc(N2CCC(C(=O)NCc3ccc(F)cc3)CC2)n1,inconclusive: 8.72%,–
Nc1nonc1-n1nnc(C(=O)N/N=C/c2ccccc2)c1CSc1ccc(Cl)cc1,inconclusive: 19.5%,–
Cc1[nH]n(C(C)(C)C)c(=O)c1Sc1ccccc1,–,"inconclusive: 29.1 µM [rising, single point]"
S=C(Nc1cccc(Cl)c1)Nc1cccc2cnccc12,inconclusive: 20.4%,–
COc1ccc(Nc2n[nH]c(C)c2[N+](=O)[O-])cc1,inconclusive: 8.66%,–
CCN(CC)S(=O)(=O)c1cc(C(=O)OCC(=O)Nc2cccc(Br)c2)ccc1F,inconclusive: -5.95%,–
COc1ccccc1-n1c(C)cc(/C=C2/C(=N)N3C(=NC2=O)SN=C3S(C)(=O)=O)c1C,inconclusive: 7.22%,–
O=C(NN1C(=O)NC2(CCCCC2)C1=O)c1ccc(-c2ccccc2Cl)o1,inconclusive: -17.2%,–
COc1ccc(C(=O)N/C(=C\c2cn(C)c3ccccc23)C(=O)NCCN2CCOCC2)cc1OC,–,"inconclusive: 29.1 µM [falling, single point]"

Compound,"lipid storage change, negative = inhibition",Potency
CC(C)(CO)NC(=O)C(c1ccccc1)c1ccccc1,–,"inconclusive: 23.1 µM [cytotoxic, partial curve]"
CC(C)(C)NC(=O)C(c1c[nH]c2ccccc12)N(C(=O)Cn1nnc(-c2ccc(F)cc2)n1)c1cccc(O)c1 (centres undefined),inconclusive: -21.1%,–
Cc1ccc(NC(=O)CCC(=O)NNS(=O)(=O)c2ccccc2)cc1C,–,"inconclusive: 8.2 µM [falling, partial curve]"
C=C(C)COc1ccc(-c2nc(N)ncc2-c2ccc(Cl)cc2)c(O)c1,–,"inconclusive: 29.1 µM [cytotoxic, single point]"
Cc1cc(S(=O)(=O)NCCCN2CCOCC2)c(C)cc1Cl,inconclusive: 24.4%,–
O=C(NCC1CCCO1)C1c2ccccc2C(=O)N1C1CCCCCCC1 (centres undefined),inconclusive: -17.1%,–
COc1ccc(NC(=O)N2CCCCCC2)cc1OC,inconclusive: -130%,–
Oc1ccccc1/C=N/c1c(-c2ccco2)nc2ccccn12,–,"inconclusive: 9.2 µM [activator, partial curve]"
CCCCc1ccc(NC(=O)Nc2c(C)n(C)n(-c3ccccc3)c2=O)cc1,inconclusive: 6.35%,–
CC1CC2(C)CC(C)C1(COC(=O)Nc1ccccc1)CO2 (centres undefined),inconclusive: 8.63%,–
COc1cc(Cl)c(C)cc1NC(=O)COC(=O)/C=C/c1c(C)nn(C2CCS(=O)(=O)C2)c1Cl (centres undefined),inconclusive: 4.14%,–
COc1ccc2c(c1)cc(C(=O)O)n2C,inconclusive: 12.2%,–
CCOC(=O)Cn1c(=O)cc(C)c2cccc(C)c21,–,"inconclusive: 0.184 µM [falling, full curve, poor fit]"
Cc1ccc(NC(=O)CSc2ccc(C(N)=O)cc2[N+](=O)[O-])cc1C,inconclusive: 44.4% [at 0.00295 µM],–
Nc1cc(-c2ccc(Cl)cc2)nn1S(=O)(=O)c1ccc(Cl)cc1,–,"inconclusive: 4.11 µM [rising, partial curve, poor fit]"
CCCCNC(=O)c1cc(-c2ccc(OC)c(OC)c2)on1,–,"inconclusive: 0.517 µM [activator, full curve, poor fit]"
CCCc1cc(=O)oc2cc(OCC(=O)N3CCC(C(N)=O)CC3)ccc12,inconclusive: 14.2%,–
COCC(C)n1c(C)cc(C(=O)Cn2nc(C(=O)O)c3ccccc3c2=O)c1C (centres undefined),inconclusive: 6.7%,–
COc1ccc(NS(=O)(=O)c2ccc(C)c(C(=O)NCC(c3ccco3)N(C)C)c2)cc1 (centres undefined),–,"inconclusive: 6.51 µM [activator, single point]"
CCC(C)N(C(=O)COC(=O)CNC(=O)c1sc2ccccc2c1Cl)C1CCS(=O)(=O)C1 (centres undefined),inconclusive: -41%,–
CCOc1ccc(NC(=O)CN(C)C(=O)CCCc2nc3ccccc3c(=O)[nH]2)cc1OCC,inconclusive: 12.7%,–
O=C(CCN1C(=O)/C(=C\c2ccccc2F)SC1=S)N1CCCCC1,inactive: 0.243%,–
CCOCCCn1c(C)nc2c(c1=O)c1nc3ccccc3nc1n2CCC1=CCCCC1,inconclusive: 15.2%,–
Cc1ccc(-n2c(Cn3c(C)nc4ccccc43)n[nH]c2=S)cc1,inconclusive: 10.9%,–
Cc1ccc(NC(=S)N2CCC(NC(=O)c3ccc(C)cc3)CC2)cc1,–,"inconclusive: 5.17 µM [activator, full curve, poor fit]"

Compound,"lipid storage change, negative = inhibition",Potency
COc1ccc(-c2cc(C(=O)Nc3c(C)nn(Cc4ccccc4Cl)c3C)no2)cc1,–,"inconclusive: 3.66 µM [activator, partial curve, poor fit]"
CCC1NC(=O)c2cc(S(N)(=O)=O)c(Cl)cc2N1 (centres undefined),inconclusive: -10.8%,–
CC(C)CNS(=O)(=O)c1cc(C(=O)O)c(Cl)cc1Cl,–,"inconclusive: 1.46 µM [falling, full curve, poor fit]"
Cc1ccc(S(=O)(=O)Nc2cc(=O)[nH]c(SCC(=O)Nc3ccccc3Cl)n2)cc1,inconclusive: 8.23%,–
Cc1cc(NC(=O)CCSc2nc(-c3ccco3)cc(C(F)(F)F)n2)no1,–,"inconclusive: 20.6 µM [activator, partial curve]"
CCN(CC)CCCNC(=S)N1CCN(c2nc(-c3ccccc3)cs2)CC1,inconclusive: -7.72%,–
CCOC(=O)c1c(-c2ccccc2)csc1NC(=O)CSc1nnc(C)s1,inconclusive: 4.67%,–
COc1ccccc1CN1CCC(CNS(=O)(=O)c2cc(-c3onc(C)c3C)ccc2OC)CC1,–,"inconclusive: 0.651 µM [activator, single point]"
C=CCN(c1ccccc1Cl)S(=O)(=O)c1cccc(C(=O)OCC(=O)N(C)C2CCS(=O)(=O)C2)c1 (centres undefined),inconclusive: -19.9%,–
Cc1cc(C(=O)CSc2nnc(N)s2)c(C)n1CCc1ccc(Cl)cc1,inconclusive: 5.85%,–
CC1(C)COC(c2cccc(C3=NC(C)(C)CO3)n2)=N1,inconclusive: 5.6%,–
CC12CC(NC(=O)N1c1cccc(C(=O)NCc3ccccc3)c1)c1ccccc1O2 (centres undefined),–,"inconclusive: 29.1 µM [falling, single point]"
COc1ccc(C(=O)CN2C(=O)NC(C)(c3ccccc3)C2=O)cc1OC (centres undefined),–,"inconclusive: 6.51 µM [falling, single point]"
COc1ccccc1N1CCN(CCCCNC(=O)c2ccc3ccccc3c2)CC1,inconclusive: 22.4%,–
O=c1cc(CSc2nnnn2-c2ccc(O)cc2)nc2sccn12,inconclusive: 7.81% [at 9.22 µM],–
O=S(=O)(c1ccc(SCc2ccc(Cl)cc2)nc1)N1CCCC1,–,"inconclusive: 6.51 µM [activator, single point]"
COC(=O)Nc1nc(-c2ccccc2)c(C(=O)c2ccccc2)s1,inconclusive: -15.4%,–
C=CCN(C(=O)CNC(=O)c1ccco1)C(C(=O)NC1CCCCC1)c1cccnc1 (centres undefined),–,"inconclusive: 18.4 µM [activator, single point]"
O=C(OCn1nnc2ccccc2c1=O)C12CC3CC(CC(O)(C3)C1)C2,inconclusive: -10.5%,–
O=c1[nH]c(/C=C/c2ccccc2Cl)nc2ccccc12,inconclusive: 19.2%,–
Nc1nc(N)nc(-c2cccc(Cl)c2)n1,inconclusive: -56.2%,–
O=C(CNc1ccccc1)NNC1=NCCC1,inconclusive: -15.8%,–
O=C(O)/C=C\c1cccc(-n2cnnn2)c1,inconclusive: 0.774%,–
CCOc1ccc(NCc2cccn2-c2nnc(N3CCC(C(=O)NCCCN4CCCCC4CC)CC3)s2)cc1 (centres undefined),–,"inconclusive: 36.6 µM [activator, partial curve]"
